This passage reports binding results from paper PMC6268524.

The chains behind the UniProt entries cited, without tags or fusion partners. Where a name states a change or a piece, a line headed by the entry shows the natural chain unless it says otherwise. Residues count along the entry.
UniProt Q8NBP7: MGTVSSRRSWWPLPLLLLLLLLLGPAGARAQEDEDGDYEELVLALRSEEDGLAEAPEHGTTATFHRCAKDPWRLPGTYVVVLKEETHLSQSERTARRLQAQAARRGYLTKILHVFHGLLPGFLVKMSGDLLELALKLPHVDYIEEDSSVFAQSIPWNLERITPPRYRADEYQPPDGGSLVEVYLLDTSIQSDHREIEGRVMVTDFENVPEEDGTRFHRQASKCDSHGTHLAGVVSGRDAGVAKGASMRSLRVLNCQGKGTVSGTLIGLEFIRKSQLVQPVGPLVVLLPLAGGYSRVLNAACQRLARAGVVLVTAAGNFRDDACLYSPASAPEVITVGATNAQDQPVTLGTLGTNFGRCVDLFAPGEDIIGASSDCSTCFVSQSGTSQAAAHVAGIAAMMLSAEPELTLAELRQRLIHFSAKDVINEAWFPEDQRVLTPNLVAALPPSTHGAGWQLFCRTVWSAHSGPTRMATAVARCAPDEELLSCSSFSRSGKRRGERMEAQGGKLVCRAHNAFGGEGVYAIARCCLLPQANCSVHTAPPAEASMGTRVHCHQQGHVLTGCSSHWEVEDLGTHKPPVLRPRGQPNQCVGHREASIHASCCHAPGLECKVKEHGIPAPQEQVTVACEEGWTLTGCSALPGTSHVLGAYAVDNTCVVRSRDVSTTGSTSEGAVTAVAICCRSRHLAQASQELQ
UniProt Q13490: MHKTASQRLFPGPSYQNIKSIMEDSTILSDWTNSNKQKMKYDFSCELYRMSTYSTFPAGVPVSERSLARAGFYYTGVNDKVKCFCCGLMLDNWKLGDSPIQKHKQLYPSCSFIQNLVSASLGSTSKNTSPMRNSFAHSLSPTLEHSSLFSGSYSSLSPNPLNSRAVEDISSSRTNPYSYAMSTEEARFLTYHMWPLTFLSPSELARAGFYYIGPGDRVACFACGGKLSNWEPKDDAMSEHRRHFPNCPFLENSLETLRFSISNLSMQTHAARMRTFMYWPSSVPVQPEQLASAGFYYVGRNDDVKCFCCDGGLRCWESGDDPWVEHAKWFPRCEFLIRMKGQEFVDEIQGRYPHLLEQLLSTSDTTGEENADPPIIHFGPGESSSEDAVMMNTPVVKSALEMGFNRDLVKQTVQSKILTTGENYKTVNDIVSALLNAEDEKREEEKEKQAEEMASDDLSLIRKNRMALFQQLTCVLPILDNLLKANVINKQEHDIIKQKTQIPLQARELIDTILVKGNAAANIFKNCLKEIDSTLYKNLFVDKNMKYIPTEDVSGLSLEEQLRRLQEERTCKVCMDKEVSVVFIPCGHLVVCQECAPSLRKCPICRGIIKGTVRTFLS
UniProt Q9NYU2, residues 43-1555: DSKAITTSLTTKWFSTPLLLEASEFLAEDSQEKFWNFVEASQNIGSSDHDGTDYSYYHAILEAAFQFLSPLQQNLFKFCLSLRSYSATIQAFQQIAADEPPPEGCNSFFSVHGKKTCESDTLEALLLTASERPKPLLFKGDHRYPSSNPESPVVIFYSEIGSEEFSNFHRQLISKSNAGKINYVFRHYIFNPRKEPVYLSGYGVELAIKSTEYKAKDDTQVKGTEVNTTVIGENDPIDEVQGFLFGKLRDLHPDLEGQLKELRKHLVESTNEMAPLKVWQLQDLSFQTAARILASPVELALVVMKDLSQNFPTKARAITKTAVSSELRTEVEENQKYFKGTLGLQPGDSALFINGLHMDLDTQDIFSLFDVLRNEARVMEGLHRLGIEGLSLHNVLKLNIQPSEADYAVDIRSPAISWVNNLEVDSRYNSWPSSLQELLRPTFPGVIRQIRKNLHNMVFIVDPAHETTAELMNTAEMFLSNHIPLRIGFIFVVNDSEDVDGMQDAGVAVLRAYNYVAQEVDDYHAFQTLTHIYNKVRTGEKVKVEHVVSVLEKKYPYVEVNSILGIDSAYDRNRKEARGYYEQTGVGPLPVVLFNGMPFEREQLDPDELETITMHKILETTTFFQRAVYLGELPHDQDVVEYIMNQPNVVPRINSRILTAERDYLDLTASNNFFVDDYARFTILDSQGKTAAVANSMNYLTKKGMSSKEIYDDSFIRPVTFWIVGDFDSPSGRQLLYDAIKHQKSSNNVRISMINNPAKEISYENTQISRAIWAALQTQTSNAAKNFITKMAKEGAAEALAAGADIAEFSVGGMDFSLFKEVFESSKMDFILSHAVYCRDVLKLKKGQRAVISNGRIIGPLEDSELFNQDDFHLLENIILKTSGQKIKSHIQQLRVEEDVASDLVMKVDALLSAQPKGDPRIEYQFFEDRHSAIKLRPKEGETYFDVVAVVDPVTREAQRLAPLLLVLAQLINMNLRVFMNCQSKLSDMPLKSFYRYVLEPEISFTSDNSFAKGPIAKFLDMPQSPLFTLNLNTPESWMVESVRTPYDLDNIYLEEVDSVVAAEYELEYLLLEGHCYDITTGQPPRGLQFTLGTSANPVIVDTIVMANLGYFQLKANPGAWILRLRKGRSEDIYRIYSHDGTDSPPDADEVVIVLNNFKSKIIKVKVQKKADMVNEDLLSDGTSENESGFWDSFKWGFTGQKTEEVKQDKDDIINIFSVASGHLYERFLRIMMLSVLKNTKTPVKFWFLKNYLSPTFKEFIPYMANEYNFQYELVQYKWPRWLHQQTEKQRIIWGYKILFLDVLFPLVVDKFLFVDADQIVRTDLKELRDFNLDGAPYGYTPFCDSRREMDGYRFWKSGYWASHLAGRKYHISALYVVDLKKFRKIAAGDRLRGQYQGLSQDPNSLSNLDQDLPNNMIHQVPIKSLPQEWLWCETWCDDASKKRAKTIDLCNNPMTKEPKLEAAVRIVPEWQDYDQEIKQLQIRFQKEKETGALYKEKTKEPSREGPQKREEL

Results are given in words; binding and its absence hold for the method and conditions named. In cells and extracts the contact can be indirect. For some of these results: Binding calls can cover weak binding; strength is not graded here. For some of these results: Where a sequence is shown, tags or fusion partners need not be part of it.

Test [1] addresses FLAG-tagged wild-type PCSK9 (proprotein convertase subtilisin/kexin type 9) (human) (UniProt Q8NBP7). Kind of test: co-IP; anti-FLAG IP from cellular extracts of T-Rex-293 lines stably overexpressing FLAG-tagged PCSK9 (wild type or ADH mutants), Western blots for endogenous partners with commercial antibodies. (A western blot detects proteins with antibodies after separation by electrophoresis.)

For the next test, the target named is T1, myc-tagged TRAF2 (UniProt Q12933).
T1 sequence: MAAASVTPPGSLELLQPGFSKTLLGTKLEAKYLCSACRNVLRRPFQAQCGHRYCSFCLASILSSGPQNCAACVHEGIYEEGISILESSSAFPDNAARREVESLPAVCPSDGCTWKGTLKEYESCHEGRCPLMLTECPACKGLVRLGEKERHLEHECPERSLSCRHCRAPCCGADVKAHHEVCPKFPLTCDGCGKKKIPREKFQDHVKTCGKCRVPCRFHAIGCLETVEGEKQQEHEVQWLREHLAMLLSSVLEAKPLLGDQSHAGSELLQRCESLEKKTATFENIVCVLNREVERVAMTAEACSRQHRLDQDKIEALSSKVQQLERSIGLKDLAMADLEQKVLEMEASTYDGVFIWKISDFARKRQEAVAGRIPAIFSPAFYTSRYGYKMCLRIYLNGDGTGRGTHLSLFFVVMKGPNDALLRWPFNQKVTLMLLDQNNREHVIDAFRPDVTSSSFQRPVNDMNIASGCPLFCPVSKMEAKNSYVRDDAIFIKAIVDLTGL
Kind of test: co-IP; FLAG-tagged wild-type PCSK9 co-transfected with a myc-tagged partner into T-Rex-293 cells; after 24 h lysates immunoprecipitated with anti-myc antibody, blotted with anti-PCSK9.

The next test addresses myc-tagged c-IAP1 (UniProt Q13490). The test is described as above.

In the case of “UDP-glucose glycoprotein glucosyltransferase 1 (from UniProt Q9NYU2 43-1555)”, in test [1], the binding result was “binds”.
As to “FLAG-tagged wild-type PCSK9 (proprotein convertase subtilisin/kexin type 9) (from UniProt Q8NBP7)”, the binding entry is given as “no binding” in the test with myc-tagged TRAF2 and “binds” in the test with myc-tagged c-IAP1.

B1: protein disulfide isomerase family A, member 4 (protein, UniProt P13667 21-645)
chain: VAGAEGPDEDSSNRENAIEDEEEEEEEDDDEEEDDLEVKEENGVLVLNDANFDNFVADKDTVLLEFYAPWCGHCKQFAPEYEKIANILKDKDPPIPVAKIDATSASVLASRFDVSGYPTIKILKKGQAVDYEGSRTQEEIVAKVREVSQPDWTPPPEVTLVLTKENFDEVVNDADIILVEFYAPWCGHCKKLAPEYEKAAKELSKRSPPIPLAKVDATAETDLAKRFDVSGYPTLKIFRKGRPYDYNGPREKYGIVDYMIEQSGPPSKEILTLKQVQEFLKDGDDVIIIGVFKGESDPAYQQYQDAANNLREDYKFHHTFSTEIAKFLKVSQGQLVVMQPEKFQSKYEPRSHMMDVQGSTQDSAIKDFVLKYALPLVGHRKVSNDAKRYTRRPLVVVYYSVDFSFDYRAATQFWRSKVLEVAKDFPEYTFAIADEEDYAGEVKDLGLSESGEDVNAAILDESGKKFAMEPEEFDSDTLREFVTAFKKGKLKPVIKSQPVPKNNKGPVKVVVGKTFDSIVMDPKKDVLIEFYAPWCGHCKQLEPVYNSLAKKYKGQKGLVIAKMDATANDVPSDRYKVEGFPTIYFAPSGDKKNPVKFEGGDRDLEHLSKFIEEHATKLSRTKEEL
As to B1, the binding result in test [1] is reported as “binds”.
